From PubChem BioAssay AID687031 (Broad Institute, 2013)
About 50 (4%) of roughly 1,400 compounds were called active.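 The calls were made as follows: active = fitted curve reaches 30% CPE protection at or below the top valid dose, with every test run called active; inconclusive = test runs disagree, some active and some not; inactive = every test run inactive, including effects in the wrong direction.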 This is one part of the list. Results with a measured potency or affinity are listed apart.

Experiment: Dengue virus 2 cytopathic effect protection, dose response, BHK-21 cells, ATP luminescence, cherry-pick (AID 687031);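 also: 0% = infected DMSO wells and 100% = uninfected cell wells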
Conditions: BHK-21 DENV2 CPE protection, 5 d; at 19.5 µM (top of the series) unless noted

CPE protection (higher = active), inactive:
COc1cc(C(=O)NCc2cccc(Cl)c2)ccc1OCC(=O)N1CCOCC1 -20.5%, O=C(OCc1ccccc1)N1CCC2CC1c1ccc(-c3ccc4c(c3)OCO4)cc12 (centres undefined) 14%, COc1ccccc1CNC(=O)C(=O)Nc1ccc(C(=O)N2CCC(C)CC2)cc1 -6.74%, CC(C)c1cc(-c2cc(C(=O)NCc3ccccc3)on2)nc(NC2CCCC2)n1 8.61%, CC(C)CCn1c2ccccc2c2cc(CC(N)=O)ccc21 -14.7%, CC(C)C[C@@H](CN1C(=O)C(=O)NC[C@@H]1CC(C)C)NC(=O)Cc1ccccc1 -3.77%, CCN(C(=O)COC(=O)c1cc2c(s1)CCCCC2)C1CCS(=O)(=O)C1 (centres undefined) 1.16%, CCN(CC)S(=O)(=O)c1ccc(NC(=O)COC(=O)CNC(=O)C2CCCCC2)cc1 5.22%, CCOC(=O)c1ccc(NC(=O)c2nc[nH]c2C(=O)NC[C@H](C)O)cc1 -2.08%, CCOC(=O)c1cc(S(=O)(=O)N2CCc3ccccc32)cn1C -15.8%, CC(C)OC(=O)c1ccc(NCc2cc(O)ccc2O)cc1 -7.2%, COc1ccc(-c2nc(CN3CCC(C(=O)N4CCOCC4)CC3)c(C)o2)c(OC)c1 -16%, CNC[C@@H]1OCCCC[C@H](C)Oc2ccc(NS(C)(=O)=O)cc2C(=O)N([C@@H](C)CO)C[C@@H]1C -0.061%, CCNC(=O)C1(C)CCN(Cc2noc(-c3c(C)noc3C)n2)C1 (centres undefined) 2.45%, COc1ccc(S(=O)(=O)N2CCC(C(=O)NCCC(=O)NCc3ccccn3)CC2)cc1 -22.1%, CCN=C1NC(c2ccccc2C(F)(F)F)C(C(=O)OC)=C(C)N1C (centres undefined) 11%, CCCOc1cccc(C(=O)Nc2ccc(CN3CCOCC3)cc2)c1 -3.61%, CC(C)NC(=O)N(C)C[C@@H]1Oc2ccc(NC(=O)Cc3cn(C)c4ccccc34)cc2C(=O)N([C@@H](C)CO)C[C@H]1C -10.3%, COc1ccc(CC(=O)Nc2ccc(S(=O)(=O)Nc3cc(C)nc(C)n3)cc2)cc1OC 2.13%, CN1c2ccc(Br)cc2[C@@H]2[C@@H](CCN2S(=O)(=O)c2ccccc2)[C@H]1CO -16.7%, CN(C)CCCNc1cc(O)c2ncccc2c1 -6.23%, COc1ccc(-c2nc(NCCCN(C)C)c3ccccc3n2)cc1 -0.736% [at 10 µM], COc1ccc2c3c([nH]c2c1)[C@@H](CO)N(Cc1ccc(F)cc1)CC31CN(C(=O)NC(C)C)C1 5.5% [at 21 µM], O=C(Nc1ccccc1C(F)(F)F)C(O)(c1ccccc1)C1CCCCC1 (centres undefined) -25.2%, COC(=O)C(Cc1csc2ccc(Cl)cc12)NC(=O)c1ccc(Cl)cc1 (centres undefined) 4.11%, O=C(NC1CC1)c1cccc(NC(=O)c2cc(S(=O)(=O)N3CCOCC3)ccc2Cl)c1 -15%, COc1cccc(CNC(=O)[C@H]2[C@H](CO)[C@H]3Cn4c(ccc(-c5ccncc5)c4=O)[C@H]3N2C)c1 -6.96%, CCc1ccc2cc(C)cc(C)c2n1 28.8%, O=C(Nc1ccc(S(=O)(=O)NC2=NCCCCC2)cc1)c1cccs1 -16.1%, O=C(N[C@@H]1c2ccccc2CC[C@@H]1OCc1ccccc1)c1ccc(C(F)(F)F)cc1 -6.3%, CCOC(=O)CN1CC23C=CC(O2)C(C(=O)NCCc2ccccc2)C3C1=O (centres undefined) -15.2%, CC1CCc2sc(C(=O)NN=C3CCCC3)cc2C1 (centres undefined) -28.9%, Cc1ccc(S(=O)(=O)Cc2ccccc2Cl)cc1 -2.23%, CN(Cc1nc2ccccc2c(=O)[nH]1)C(=O)c1cccc(S(=O)(=O)N2CCc3ccccc32)c1 -17.6%, Cc1cc(OCC(=O)NC(Cc2ccc(Cl)cc2)C(=O)O)c2c(C)c(C)c(=O)oc2c1 (centres undefined) -6.1%, CC(NC(=O)c1ccccc1)C(=O)OCn1nnc2ccccc2c1=O (centres undefined) 9.01%, C[C@@H]1CCCCO[C@@H](CN(C)C(=O)c2ccccc2)[C@@H](C)CN([C@@H](C)CO)C(=O)c2cc(NS(=O)(=O)c3ccc(F)cc3)ccc2O1 -2.27%, COc1ccc(NC(=O)C2C(c3ccc4c(c3)OCO4)=Nc3ccccc3N2C(C)=O)cc1 (centres undefined) -5.17%, COc1ccc(CNC(=O)COC(=O)CN2C(=O)NC3(CCCC3)C2=O)cc1 0.804%, Cc1ccc(NC(=O)c2ccc3c(c2)CCN3S(C)(=O)=O)cc1 -2.19%, c1cc(-c2ccc(N3CCOCC3)cc2)n2cnnc2c1 0.764%, Cc1cccc(C)c1OCC(O)Cn1ccnc1C (centres undefined) -6.37%, Cc1cc(N2CCN(C)CC2)n2nc(-c3ccc(Cl)cc3)nc2n1 17.3%, Cc1nc(C(F)(F)F)ccc1C(=O)N1CCC1(C)C(=O)NCc1ccc(Cl)cc1 (centres undefined) 0.045%, COc1ccc(-c2cc(N)n(S(=O)(=O)c3ccc(C)cc3)n2)c(OC)c1 2.33%, O=C(NCCN1CCOCC1)c1ccc2c(c1)N(Cc1ccc(F)cc1)C(=O)CS2 20.8%, COc1ccc(-c2cn(CC[C@@H]3CC[C@H](NC(=O)Nc4ccc(F)cc4)[C@H](CO)O3)nn2)cc1 -7.67%, Cc1ccc(S(=O)(=O)NCC(=O)OCC(=O)N(Cc2ccccc2)C(C)(C)C)cc1 4.31%, O=C(Nc1ccccc1)c1ccccc1CSc1ccccc1 -6.7%, CC1CC2=C(C(=O)O1)C(c1ccc(Cl)cc1)Nc1ccccc1N2 (centres undefined) 24%, C=CCNc1nc(C(=O)OCC(=O)NCc2ccccc2OC)cs1 20.2%, N#CCc1ccc(NC(=O)c2cc(S(=O)(=O)N3CCOCC3)ccc2Cl)cc1 15.9%, COc1cc(O)c(C(CC(=O)N2CCCC(C)C2)c2cc(OC)c(OC)c(OC)c2)c(OC)c1 (centres undefined) 6.44%, O=C(COC(=O)c1ccc2c(c1)OCO2)NC1CCCCC1 -8.27%
